# Measurements taken from the supplement of paper PMC8728848.
# This is one part of the list.
# Legend:
# Assay in all cases: glycan array binding signal (z-score within array); higher = stronger binding
# Conditions in all cases: glycan notation: IUPAC condensed, linker removed
# [1] = biological target: GlcNAc(a1-4)Gal(b1-4)GalNAc
# Procedure, shortened: (§1)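 Negative Z-scores can be read as non-binding. The Z-score is calculated within each array and then averaged across arrays of one protein sequence at different concentrations or buffers and across linkers. Arrays, 3228 in all, were curated from the Consortium for Functional Glycomics database and kept only where the protein sequence was available.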
# [2] = biological target: GlcNAc(a1-4)Gal(b1-4)GlcNAc
# Procedure, shortened: as §1
# [3] = biological target: GlcNAc(a1-4)Gal(b1-4)GlcNAc(b1-3)Gal(b1-4)Glc
# Procedure, shortened: as §1
# [4] = biological target: GlcNAc(a1-4)Gal(b1-4)GlcNAc(b1-3)Gal(b1-4)GlcNAc
# Procedure, shortened: as §1
# [5] = biological target: GlcNAc(a1-4)Gal(b1-4)GlcNAc(b1-3)Gal(b1-4)GlcNAc(b1-3)Gal(b1-4)GlcNAc
# Procedure, shortened: as §1
# [6] = biological target: GlcNAc(a1-4)Gal(b1-4)GlcNAc(b1-3)Gal(b1-4)[Fuc(a1-3)]GlcNAc(b1-3)Gal(b1-4)[Fuc(a1-3)]GlcNAc
# Procedure, shortened: as §1
# [7] = biological target: GlcNAc(a1-6)Gal(b1-4)GlcNAc
# Procedure, shortened: as §1
# [8] = biological target: GlcNAc(b1-2)Gal(b1-3)GalNAc
# Procedure, shortened: as §1
# [9] = biological target: GlcNAc(b1-2)Man(a1-3)[GlcNAc(b1-2)Man(a1-6)]Man(b1-4)GlcNAc(b1-4)GlcNAc
# Procedure, shortened: as §1
# [10] = biological target: GlcNAc(b1-2)Man(a1-3)[GlcNAc(b1-2)Man(a1-6)]Man(b1-4)GlcNAc(b1-4)[Fuc(a1-6)]GlcNAc
# Procedure, shortened: as §1
# [11] = biological target: GlcNAc(b1-2)[GlcNAc(b1-4)]Man(a1-3)[GlcNAc(b1-2)Man(a1-6)]Man(b1-4)GlcNAc(b1-4)GlcNAc
# Procedure, shortened: as §1
# GlcNAc(b1-3)Gal = biological target: GlcNAc(b1-3)Gal
# Procedure, shortened: as §1
# [12] = biological target: GlcNAc(b1-3)Gal(b1-3)GalNAc
# Procedure, shortened: as §1
# GlcNAc(b1-3)Gal(b1-4)Glc = biological target: GlcNAc(b1-3)Gal(b1-4)Glc
# Procedure, shortened: as §1
# [13] = biological target: GlcNAc(b1-3)Gal(b1-4)GlcNAc
# Procedure, shortened: as §1
# [14] = biological target: GlcNAc(b1-3)Gal(b1-4)GlcNAc(b1-3)Gal(b1-4)GlcNAc
# Procedure, shortened: as §1
# GlcNAc(b1-3)GalNAc = biological target: GlcNAc(b1-3)GalNAc
# Procedure, shortened: as §1
# GlcNAc(b1-3)Man = biological target: GlcNAc(b1-3)Man
# Procedure, shortened: as §1
# [15] = biological target: GlcNAc(b1-3)[GlcNAc(b1-4)][GlcNAc(b1-6)]GlcNAc
# Procedure, shortened: as §1
# [16] = biological target: GlcNAc(b1-3)[GlcNAc(b1-6)]Gal(b1-4)GlcNAc
# Procedure, shortened: as §1
# [17] = biological target: GlcNAc(b1-3)[GlcNAc(b1-6)]GalNAc
# Procedure, shortened: as §1
# [18] = biological target: GlcNAc(b1-4)Gal(b1-4)GlcNAc
# Procedure, shortened: as §1
# GlcNAc(b1-4)GlcNAc = biological target: GlcNAc(b1-4)GlcNAc
# Procedure, shortened: as §1
# [19] = biological target: GlcNAc(b1-4)GlcNAc(b1-4)GlcNAc
# Procedure, shortened: as §1
# [20] = biological target: GlcNAc(b1-4)GlcNAc(b1-4)GlcNAc(b1-4)GlcNAc(b1-4)GlcNAc
# Procedure, shortened: as §1
# [21] = biological target: GlcNAc(b1-4)GlcNAc(b1-4)GlcNAc(b1-4)GlcNAc(b1-4)GlcNAc(b1-4)GlcNAc
# Procedure, shortened: as §1
# [22] = biological target: GlcNAc(b1-4)[GlcNAc(b1-6)]GalNAc
# Procedure, shortened: as §1
# [23] = biological target: GlcNAc(b1-6)Gal(b1-4)GlcNAc
# Procedure, shortened: as §1
# GlcNAc(b1-6)GalNAc = biological target: GlcNAc(b1-6)GalNAc
# Procedure, shortened: as §1
# GlcNAc3Prop(b1-4)GlcNAc = biological target: GlcNAc3Prop(b1-4)GlcNAc
# Procedure, shortened: as §1
# [24] = biological target: GlcNAc6S(b1-3)Gal(b1-4)GlcNAc
# Procedure, shortened: as §1
# Kdn(a2-3)Gal(b1-3)GalNAc = biological target: Kdn(a2-3)Gal(b1-3)GalNAc
# Procedure, shortened: as §1
# Kdn(a2-3)Gal(b1-3)GlcNAc = biological target: Kdn(a2-3)Gal(b1-3)GlcNAc
# Procedure, shortened: as §1
# Kdn(a2-3)Gal(b1-4)Glc = biological target: Kdn(a2-3)Gal(b1-4)Glc
# Procedure, shortened: as §1
# Kdn(a2-3)Gal(b1-4)GlcNAc = biological target: Kdn(a2-3)Gal(b1-4)GlcNAc
# Procedure, shortened: as §1
binder,measurement,setting,value
"AcfC (Vibrio cholerae), Q57410 (protein) MKSKNRFLLISLLSFSTSVFADVNLYGPGGPHVPLIKVAESFEKSQSKRVNITFGPQATWNDKAKKNADILFGASEHSALAIAEGHSERFSKFNIHPVFMREAIILVKKGNPKNIKGMADLLKPGIGIVVNDGAGVSNTSGTAVWEDSVGRMKNVEKLQAFRSNIHVFAPNSGSARKAFVDGEDIDAWITWVDWAIANPTIGDMVRMEDEYRIYRDFNVVLAKNPSSEAIDFFDYLTKSKDAEAIFQHYGWFK",glycan array binding signal (z-score),[1],-1.67
same,glycan array binding signal (z-score),[2],0.224
same,glycan array binding signal (z-score),[3],0.706
same,glycan array binding signal (z-score),[4],-0.733
same,glycan array binding signal (z-score),[5],1.1
same,glycan array binding signal (z-score),[6],0.779
same,glycan array binding signal (z-score),[7],-0.288
same,glycan array binding signal (z-score),[8],-0.601
same,glycan array binding signal (z-score),[9],0.375
same,glycan array binding signal (z-score),[10],1.06
same,glycan array binding signal (z-score),[11],-1.5
same,glycan array binding signal (z-score),GlcNAc(b1-3)Gal,-1.12
same,glycan array binding signal (z-score),[12],0.911
same,glycan array binding signal (z-score),GlcNAc(b1-3)Gal(b1-4)Glc,-0.701
same,glycan array binding signal (z-score),[13],-1.75
same,glycan array binding signal (z-score),[14],-0.8
same,glycan array binding signal (z-score),GlcNAc(b1-3)GalNAc,-0.63
same,glycan array binding signal (z-score),GlcNAc(b1-3)Man,-0.42
same,glycan array binding signal (z-score),[15],0.234
same,glycan array binding signal (z-score),[16],-0.193
same,glycan array binding signal (z-score),[17],-0.088
same,glycan array binding signal (z-score),[18],-1.16
same,glycan array binding signal (z-score),GlcNAc(b1-4)GlcNAc,-0.224
same,glycan array binding signal (z-score),[19],-1.53
same,glycan array binding signal (z-score),[20],-1.07
same,glycan array binding signal (z-score),[21],-1.21
same,glycan array binding signal (z-score),[22],1.25
same,glycan array binding signal (z-score),[23],-0.452
same,glycan array binding signal (z-score),GlcNAc(b1-6)GalNAc,-0.178
same,glycan array binding signal (z-score),GlcNAc3Prop(b1-4)GlcNAc,0.164
same,glycan array binding signal (z-score),[24],-1.22
same,glycan array binding signal (z-score),Kdn(a2-3)Gal(b1-3)GalNAc,-0.511
same,glycan array binding signal (z-score),Kdn(a2-3)Gal(b1-3)GlcNAc,0.128
same,glycan array binding signal (z-score),Kdn(a2-3)Gal(b1-4)Glc,0.616
same,glycan array binding signal (z-score),Kdn(a2-3)Gal(b1-4)GlcNAc,-0.338

# Exported with bars between the fields: entries from further up
binder | measurement | setting | value
AcfC (Vibrio cholerae), Q57410 (protein) MKSKNRFLLISLLSFSTSVFADVNLYGPGGPHVPLIKVAESFEKSQSKRVNITFGPQATWNDKAKKNADILFGASEHSALAIAEGHSERFSKFNIHPVFMREAIILVKKGNPKNIKGMADLLKPGIGIVVNDGAGVSNTSGTAVWEDSVGRMKNVEKLQAFRSNIHVFAPNSGSARKAFVDGEDIDAWITWVDWAIANPTIGDMVRMEDEYRIYRDFNVVLAKNPSSEAIDFFDYLTKSKDAEAIFQHYGWFK | glycan array binding signal (z-score) | [7] | -0.288
same | glycan array binding signal (z-score) | Kdn(a2-3)Gal(b1-3)GalNAc | -0.511
